Measured values published in paper PMC8172852.
Results are given in words; binding and its absence hold for the method and conditions named. Binding seen in cells or lysates may run through a third protein. Here binding means that the protein was enriched with, or labelled near, the bait; the list need not be complete. Tags and fused reporters may be left off the sequences shown.

The chains behind the UniProt entries cited, without tags or fusion partners.
UniProt Q9W0E3: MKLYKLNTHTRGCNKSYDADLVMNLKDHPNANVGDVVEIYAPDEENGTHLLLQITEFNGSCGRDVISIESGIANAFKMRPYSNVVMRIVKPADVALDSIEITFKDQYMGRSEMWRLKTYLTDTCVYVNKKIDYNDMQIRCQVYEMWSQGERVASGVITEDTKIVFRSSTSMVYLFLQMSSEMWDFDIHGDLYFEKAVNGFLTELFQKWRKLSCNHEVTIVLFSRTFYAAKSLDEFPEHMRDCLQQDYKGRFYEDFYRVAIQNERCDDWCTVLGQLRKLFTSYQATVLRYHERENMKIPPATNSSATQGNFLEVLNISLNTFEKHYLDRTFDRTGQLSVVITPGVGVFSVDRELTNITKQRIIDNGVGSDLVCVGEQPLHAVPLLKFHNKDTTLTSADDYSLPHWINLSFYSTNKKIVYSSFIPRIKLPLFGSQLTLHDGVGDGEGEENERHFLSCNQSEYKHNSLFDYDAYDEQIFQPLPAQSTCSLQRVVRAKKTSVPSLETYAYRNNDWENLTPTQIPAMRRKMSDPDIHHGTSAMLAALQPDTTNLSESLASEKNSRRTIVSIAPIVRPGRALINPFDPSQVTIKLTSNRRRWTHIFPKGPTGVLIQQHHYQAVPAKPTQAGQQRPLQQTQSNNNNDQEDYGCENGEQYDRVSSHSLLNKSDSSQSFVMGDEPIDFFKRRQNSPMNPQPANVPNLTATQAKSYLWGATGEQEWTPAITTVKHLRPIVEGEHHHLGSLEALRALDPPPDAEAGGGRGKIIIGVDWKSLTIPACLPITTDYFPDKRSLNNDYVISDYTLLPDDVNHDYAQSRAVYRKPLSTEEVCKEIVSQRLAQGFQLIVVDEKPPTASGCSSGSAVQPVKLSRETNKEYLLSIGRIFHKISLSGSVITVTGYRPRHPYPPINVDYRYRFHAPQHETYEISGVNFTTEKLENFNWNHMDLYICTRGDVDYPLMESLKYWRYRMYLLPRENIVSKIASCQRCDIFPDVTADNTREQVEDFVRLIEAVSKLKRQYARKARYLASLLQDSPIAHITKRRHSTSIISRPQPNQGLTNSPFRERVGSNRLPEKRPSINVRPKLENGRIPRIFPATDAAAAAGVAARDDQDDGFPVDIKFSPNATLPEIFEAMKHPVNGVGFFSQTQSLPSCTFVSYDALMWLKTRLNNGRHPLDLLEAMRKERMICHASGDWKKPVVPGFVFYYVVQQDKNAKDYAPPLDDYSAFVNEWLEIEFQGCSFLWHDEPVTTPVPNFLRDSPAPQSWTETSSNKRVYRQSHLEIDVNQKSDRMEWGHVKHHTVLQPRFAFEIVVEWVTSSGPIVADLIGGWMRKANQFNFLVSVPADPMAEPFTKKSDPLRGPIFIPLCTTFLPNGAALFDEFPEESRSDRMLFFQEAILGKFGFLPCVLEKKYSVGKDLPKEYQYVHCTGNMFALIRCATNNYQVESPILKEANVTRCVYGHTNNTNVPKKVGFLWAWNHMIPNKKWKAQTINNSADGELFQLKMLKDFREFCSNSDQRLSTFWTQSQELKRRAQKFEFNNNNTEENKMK

T1: HA-FLAG tagged Nprl3 (Drosophila) (UniProt Q9VUB4)
T1 sequence: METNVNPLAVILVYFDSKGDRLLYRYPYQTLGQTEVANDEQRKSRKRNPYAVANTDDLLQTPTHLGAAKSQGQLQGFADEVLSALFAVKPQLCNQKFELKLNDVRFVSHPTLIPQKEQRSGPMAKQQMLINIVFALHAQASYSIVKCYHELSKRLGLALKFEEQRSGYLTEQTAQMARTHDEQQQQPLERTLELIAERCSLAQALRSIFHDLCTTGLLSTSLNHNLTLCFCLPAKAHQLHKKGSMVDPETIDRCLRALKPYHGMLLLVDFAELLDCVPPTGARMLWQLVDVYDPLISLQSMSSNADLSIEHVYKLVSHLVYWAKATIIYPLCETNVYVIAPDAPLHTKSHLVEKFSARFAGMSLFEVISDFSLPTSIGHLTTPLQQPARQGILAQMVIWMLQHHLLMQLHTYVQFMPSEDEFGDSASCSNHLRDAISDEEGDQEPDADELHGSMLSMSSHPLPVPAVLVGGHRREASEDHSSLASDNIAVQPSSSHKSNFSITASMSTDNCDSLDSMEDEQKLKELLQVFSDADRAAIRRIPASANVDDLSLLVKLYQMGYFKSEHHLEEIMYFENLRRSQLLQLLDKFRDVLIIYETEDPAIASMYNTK

B1: Mio (protein, UniProt Q9VQ89 1-867)
chain: MSGNTHGLSWFPHFPDKFVSWGQEIHLYEVRRKDDHSQKSRLPYISVNYLANESRYQYARCVAASYHSDQPIIAVGLADGKVGICNFRDTYDSSWEYTPRQQRMCTCLAWNELDANILAIGHDRHRNDTCITIWDIERGVPKETANFFGVGESANSICWDRNHRTVIAGMSQKMIKLFDLRQSNATCQSIQTKTVQGLSVSPNGNYLCSYVDSVITLWDPRNIKSPLRQIQSSKNHLQIAWCPTRTSLLSSLQRDSSYITLYDIRSVDTDNSGEIYHVKRQISPFPARYQHSGKFSFVNCLSWHSRDFERALLLADALNILDFRLPATLHTAHSNRRKLPLLMQRPLYTPASPTSTAATPTQQQPTSSCSTNSGSSLDFSTPGGSPFNVDLLKPELFELDLVDETRQRALEDYGIKPDNKRFGELHLTPYLRNVWSTLNNVYSEDRLTGLKATLGINLGHTSEALMASSRIESQVLQWPEGINNSNKLICYRSEQRDLALQLCGWAFEQELDRFIDQLYANKEYSRAAMICVFHLKIFHACNILSSAADNMRDPSMYRITVIALSSFNADRCSSTWRNQRSSANMQIHDPHLRAVFSFLTMEKDNFDAVLKEEGVSLSDRMAFACKYLSETKLADYVAQQIQAAIDGGDLNGLLLTGESQDGIDILQSYMDTSFDVQTVALVAINYFRQELFEDKRIQYWIASYLDHLNSWGLWEKRAELDIKIESIRPSSRSSRTVFLSCNFCGKSVSNALLDEPRPRSTTTSTNRLSSCPSCRKPLPRCSLCLMHMGTMVNMSNGETPTTTPDVPGWQTKPFSKWFSWCQTCRHGGHTEHIMQWFKQNSECPVSSCNCRCFDMDGTKPNTLRDIS
B2: FK506 binding protein 39 KD (FKBP39) (protein, UniProt P54397 1-357)
chain: MSMFWGLNMKPERKYSQTIIKSFHISGVALDKGQEAKLYLAAEKQEYIVATVTKAIPQVALDLNFSKGDRIMFYTAGDASVSLLGYLHDIDSEDDEDDDQMTIENLLNSKAIKNSKKSEDDEDENESGEEDEEDTDDDSQIIEEYESFLENGEEEDDDDVDEDNEESGEEDEQDSDDSEAEEEQPKAKVAKLSPGASAKKSGKEQNGVAKKEEAKQQQKKKEKPEAKKEQPKAKEPAKQQPASKDPRTITGGVKIVDQVVGKGEEAKQGKRVSVYYIGRLQSNNKTFDSLLKGKPFKFALGGGEVIKGWDVGVAGMKVGGKRVITCPPHMAYGARGAPPKIGPNSTLVFEVELKAVH
B3: Seh1 (protein, UniProt Q7K2X8 1-354)
chain: MFDVEPIIADHKDVIHDVVFDYYGRRMATCSSDQTVKIWDEDGQGKWNVTSSWKAHSGSIWRVSWAHPEFGQVVATCSFDRTASVWEEVIGEKVSSTNTPTRRWVRRTTLVDSRTSVTDVEFAPKYLGLLLATASADGIIRIYEAPDIMNLSQWPVQHEISNKLPLSCLSWNTSTYMVTQLLAAGSDEAATPTGKVFLFAYSENSRKCVKIDTVNDITDPVTDVAFAPNAGRTFHMLAVASKDLYIVNLRGVTDATDISKLDIQTIKFSEHNCPVWRVCWNMLATMLISTGDDGCVRLWRMNYNRQWRCAAVLKAEGSGPTYEPAPPTPTLATTASATAKFYKKGTIGNQVPWH

Target: T1, HA-FLAG tagged Nprl3 (Drosophila)
Test: affinity purification with mass spectrometry; tandem affinity purification of HA-FLAG-Nprl3 from lysates of Drosophila ovaries (MTD-GAL4 driver), control yw ovaries; quantitative mass spectrometry

Molecule	binding
Iml1 (from UniProt Q9W0E3 1-1544)	binds
B1	binds
B2	binds
B3	binds
